Laboratory results reported in doi:10.1101/2020.03.15.992727.
These are yes or no findings as the source states them, for the method shown. Binding seen in cells or lysates may run through a third protein. Some results given as binding are weak or reduced against the parent protein; the word gives no strength. Tags and fused reporters may be left off the sequences shown.

Chains of the proteins cited; added tags and fusions are not shown. Lines headed by an entry give the natural chain unless they say otherwise; changes in a name come on top.
UniProt P56962, whole entry: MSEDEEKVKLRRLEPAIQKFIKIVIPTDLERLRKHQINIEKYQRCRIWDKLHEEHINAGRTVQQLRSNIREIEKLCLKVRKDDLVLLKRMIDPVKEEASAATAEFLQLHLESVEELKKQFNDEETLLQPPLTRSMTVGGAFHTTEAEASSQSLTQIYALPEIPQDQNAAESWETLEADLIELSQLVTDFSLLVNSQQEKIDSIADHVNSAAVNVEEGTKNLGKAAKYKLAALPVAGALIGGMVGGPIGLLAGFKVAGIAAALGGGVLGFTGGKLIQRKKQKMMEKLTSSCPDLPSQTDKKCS

T1: GFP-tagged human Ykt6 phospho-ablative mutant (S174A) (human) (UniProt O15498)
T1 sequence: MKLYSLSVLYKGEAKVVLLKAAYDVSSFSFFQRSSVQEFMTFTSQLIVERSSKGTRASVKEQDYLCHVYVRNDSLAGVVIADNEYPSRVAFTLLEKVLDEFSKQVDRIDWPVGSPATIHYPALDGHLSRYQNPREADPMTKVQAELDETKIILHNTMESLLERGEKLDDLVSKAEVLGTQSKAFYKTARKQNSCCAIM

T2: GFP-tagged wild-type (WT) human Ykt6 (human) (UniProt O15498)
T2 sequence: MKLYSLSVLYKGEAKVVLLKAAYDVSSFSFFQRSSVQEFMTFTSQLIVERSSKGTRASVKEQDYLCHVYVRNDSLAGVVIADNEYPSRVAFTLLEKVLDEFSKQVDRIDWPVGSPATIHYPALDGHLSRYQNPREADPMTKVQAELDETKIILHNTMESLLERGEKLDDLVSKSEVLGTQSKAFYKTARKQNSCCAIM

T3: N-terminal half of Venus fused to Ykt6 Longin domain (human) (UniProt O15498)
T3 sequence: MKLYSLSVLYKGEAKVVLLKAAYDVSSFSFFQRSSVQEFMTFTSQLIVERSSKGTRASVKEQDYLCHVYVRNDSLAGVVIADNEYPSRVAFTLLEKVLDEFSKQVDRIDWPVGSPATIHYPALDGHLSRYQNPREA


What was measured:
[1] = target: T1, GFP-tagged human Ykt6 phospho-ablative mutant (S174A) (human); assay: co-IP
[2] = target: T2, GFP-tagged wild-type (WT) human Ykt6 (human); assay: co-IP
[3] = target: T3, N-terminal half of Venus fused to Ykt6 Longin domain (human); assay: split reporter

binding [1]	binding [2]	binding [3]	Molecule
binds	binds weakly	–	Stx17 (from UniProt P56962 1-302)
–	–	binds	C-terminal half of Venus fused to Ykt6 SNARE domain, wild type (domain or fragment, UniProt O15498 137-193) DPMTKVQAELDETKIILHNTMESLLERGEKLDDLVSKSEVLGTQSKAFYKTARKQNS
–	–	binds	C-terminal half of Venus fused to Ykt6 SNARE domain, phospho-ablative (S174A) (domain or fragment, UniProt O15498 137-193) DPMTKVQAELDETKIILHNTMESLLERGEKLDDLVSKAEVLGTQSKAFYKTARKQNS
